From patent US11666558B2, “Methods of treating intraocular pressure with activators of Tie-2” (EyePoint Pharmaceuticals, Inc., priority 2015, dated 2023)
“And” between values parts separate entries of the source, which are not always exact repeats. Equal entries are not always repeated. Structures can show the parent of a compound that is named as a salt. Further values from the same series stand in other lists.

Assay: Ocular tissue concentrations (aqueous humor, vitreous humor, iris, retina, choroid, cornea) after topical ocular, subcutaneous and intravitreal administration
Assay type: in vivo, New Zealand White rabbits
Conditions: for vitreous humor Conc., individual eyes (OD, OS): Group 1 topical ocular 1.2 mg/eye; for Choroid homogenate Conc., individual eyes (OD, OS) / Choroid tissue Conc., individual eyes (OD, OS) / Cornea homogenate Conc., individual eyes (OD, OS) / Cornea tissue Conc., individual eyes (OD, OS) / Iris homogenate Conc., individual eyes (OD, OS) / Iris tissue Conc., individual eyes (OD, OS) / Retina homogenate Conc., individual eyes (OD, OS) / Retina tissue Conc., individual eyes (OD, OS): topical ocular 1.2 mg/eye (~0.7 mg/kg/dose)
Protocol: To measure the concentration of Compound 1 in plasma and ocular tissues following topical ocular, subcutaneous, and intravitreal administration, New Zealand White rabbits were administered Compound 1, and plasma and ocular samples were collected at pre-determined time points. Compound 1 formulations were prepared fresh on each day of dosing.
Ocular tissue samples from both eyes of each animal were collected and weights were recorded. Plasma and ocular tissue sample concentrations of Compound 1 were determined by LC-MS/MS.
New Zealand White rabbits weighing 2.5 to 3.5 kg were used on this study. Rabbits were housed one per cage. Animals were not fasted and only healthy animals with no ocular illness were used. Two rabbits per group were sacrificed at each of four ocular tissue sampling time points for a total of eight rabbits per group.
Animals were anesthetized for ocular (topical) and intravitreal dosing following the 12IA7 IACUC protocol. Each rabbit received a bolus dose of test formulation either via topical ocular administration 3 times daily on Days 1 and 2 (at 0, 6, and 12 hours), and once on Day 3 (at 0 hours) into both eyes; via intravitreal administration into both eyes once on Day 1 (at 0 hours); or via subcutaneous administration 2 times daily on Days 1 and 2 (at 0 and 8 hours) and once daily on Day 3 (at 0 hours). Doses were given within an approximately 1 hour window each day where applicable.
On Day 1, for intravitreal administration, or on Day 3, for topical ocular and subcutaneous administration, at the appropriate ocular tissue collection time points, animals were euthanized and both eyes were enucleated immediately. Following enucleation, each eye was rinsed with phosphate-buffered saline. Ocular tissue samples from both eyes of each animal were collected at predetermined time points and weights were recorded. All the samples were frozen immediately on dry ice, and stored at −60° C. to −80° C. pending bioanalysis.
An LC-MS/MS method was developed for the determination of Compound 1 in rabbit aqueous tissues (plasma, aqueous and vitreous humor) and solid ocular tissue samples. A pre-study standard curve was analyzed to determine the specificity, range, and lower limit of quantitation of the method. Plasma and tissue homogenate study samples were extracted and analyzed. All the samples were treated identically to the standards.
One eight-point standard curve was used in each analytical batch. To be accepted, each batch must have had at least five of eight standards with accuracy within ±20% of nominal, except at the lower limit of quantification (LLOQ), where ±25% was acceptable.
Concentration versus time data is plotted in FIGS. 3-16. All data are expressed as ng/g of the free drug. Samples that were below the limit of quantitation (0.2 ng/mL) were not used in the calculation of averages.

Compound: COC(=O)N[C@@H](Cc1ccccc1)C(=O)N[C@@H](Cc1ccc(NS(=O)(=O)O)cc1)c1csc(-c2cccs2)n1 [Compound 1 sodium salt]
- vitreous humor Conc., individual eyes (OD, OS) (0.5 hr): 0.549 ng/mL and 0.507 ng/mL
- vitreous humor Conc., individual eyes (OD, OS) (1.0 hr): 1.97 ng/mL and 0.282 ng/mL and 3.28 ng/mL and 2.83 ng/mL
- Choroid homogenate Conc., individual eyes (OD, OS) (0.5 hr): 2.75 ng/mL and 1.47 ng/mL and 5.55 ng/mL and 11.2 ng/mL
- Choroid tissue Conc., individual eyes (OD, OS) (0.5 hr): 16.2 ng/g and 30.3 ng/g and 123 ng/g and 61.1 ng/g
- Cornea homogenate Conc., individual eyes (OD, OS) (0.5 hr): 21.8 ng/mL and 38.8 ng/mL and 33.6 ng/mL and 275 ng/mL
- Cornea tissue Conc., individual eyes (OD, OS) (0.5 hr): 240 ng/g and 370 ng/g
- Iris homogenate Conc., individual eyes (OD, OS) (0.5 hr): 1.62 ng/mL and 1.7 ng/mL and 2.95 ng/mL
- Iris tissue Conc., individual eyes (OD, OS) (0.5 hr): 28.1 ng/g and 32.5 ng/g and 18.7 ng/g
- Retina homogenate Conc., individual eyes (OD, OS) (0.5 hr): 0.695 ng/mL and 3.06 ng/mL and 2.54 ng/mL and 3.01 ng/mL
- Retina tissue Conc., individual eyes (OD, OS) (0.5 hr): 33.7 ng/g and 7.65 ng/g and 33.1 ng/g and 27.9 ng/g
- Choroid homogenate Conc., individual eyes (OD, OS) (1 hr): 5.56 ng/mL and 1.50 ng/mL and 2.89 ng/mL and 1.77 ng/mL
- Choroid tissue Conc., individual eyes (OD, OS) (1 hr): 16.5 ng/g and 61.2 ng/g and 19.5 ng/g and 31.8 ng/g
- Cornea homogenate Conc., individual eyes (OD, OS) (1 hr): 87.2 ng/mL and 43.8 ng/mL and 19.9 ng/mL and 48.4 ng/mL
- Cornea tissue Conc., individual eyes (OD, OS) (1 hr): 482 ng/g and 959 ng/g and 532 ng/g and 219 ng/g
- Iris homogenate Conc., individual eyes (OD, OS) (1 hr): 1.57 ng/mL and 2.70 ng/mL and 5.69 ng/mL and 10.1 ng/mL
- Iris tissue Conc., individual eyes (OD, OS) (1 hr): 29.7 ng/g and 17.3 ng/g and 111 ng/g and 62.6 ng/g
- Retina homogenate Conc., individual eyes (OD, OS) (1 hr): 6.99 ng/mL and 2.01 ng/mL and 7.81 ng/mL and 4.70 ng/mL
- Retina tissue Conc., individual eyes (OD, OS) (1 hr): 22.1 ng/g and 76.9 ng/g and 51.7 ng/g and 85.9 ng/g
- Choroid homogenate Conc., individual eyes (OD, OS) (2 hr): 1.19 ng/mL and 3.99 ng/mL and 10.5 ng/mL and 5.86 ng/mL
- Choroid tissue Conc., individual eyes (OD, OS) (2 hr): 43.9 ng/g and 13.1 ng/g and 64.5 ng/g and 116 ng/g
- Cornea homogenate Conc., individual eyes (OD, OS) (2 hr): 20.9 ng/mL and 25.4 ng/mL and 87.8 ng/mL and 256 ng/mL
- Cornea tissue Conc., individual eyes (OD, OS) (2 hr): 279 ng/g and 230 ng/g and 2816 ng/g and 966 ng/g
- Iris homogenate Conc., individual eyes (OD, OS) (2 hr): 1.12 ng/mL and 2.99 ng/mL and 5.40 ng/mL and 9.38 ng/mL
- Iris tissue Conc., individual eyes (OD, OS) (2 hr): 32.9 ng/g and 12.3 ng/g and 103 ng/g and 59.4 ng/g
- Retina homogenate Conc., individual eyes (OD, OS) (2 hr): 1.56 ng/mL and 8.93 ng/mL and 4.54 ng/mL and 2.54 ng/mL
- Retina tissue Conc., individual eyes (OD, OS) (2 hr): 98.2 ng/g and 17.2 ng/g and 27.9 ng/g and 49.9 ng/g
- Choroid homogenate Conc., individual eyes (OD, OS) (4 hr): 2.53 ng/mL and 7.37 ng/mL and 4.74 ng/mL and 45.4 ng/mL
- Choroid tissue Conc., individual eyes (OD, OS) (4 hr): 81.1 ng/g and 27.8 ng/g and 52.1 ng/g
- Cornea homogenate Conc., individual eyes (OD, OS) (4 hr): 44.8 ng/mL and 37.0 ng/mL and 32.9 ng/mL and 79.4 ng/mL
- Cornea tissue Conc., individual eyes (OD, OS) (4 hr): 407 ng/g and 493 ng/g and 873 ng/g and 362 ng/g
- Iris homogenate Conc., individual eyes (OD, OS) (4 hr): 2.97 ng/mL and 2.79 ng/mL and 2.54 ng/mL and 86.7 ng/mL
- Iris tissue Conc., individual eyes (OD, OS) (4 hr): 32.7 ng/g and 27.9 ng/g
- Retina homogenate Conc., individual eyes (OD, OS) (4 hr): 1.60 ng/mL and 5.89 ng/mL and 9.88 ng/mL and 130 ng/mL
- Retina tissue Conc., individual eyes (OD, OS) (4 hr): 64.8 ng/g and 17.6 ng/g and 109 ng/g
